PubChem BioAssay AID504467 (National Center for Advancing Translational Sciences (NCATS), 2011)
The campaign covered roughly 330,000 compounds. About 7,700 (2.3%) were called active. The inconclusive results got no clear call from the source; some entries with a clear call stand among them for comparison. Calls come from the whole dose curve; as a rule, active = well fitted inhibition curve with a large enough effect; inconclusive = small, poorly fitted or top-dose-only effect, or effect the other way; inactive = flat fitted curve, though single readings scatter. Where the call is inconclusive, the potency comes from a doubtful curve fit.

Experiment: qHTS screen for small molecules that inhibit ELG1-dependent DNA repair in human embryonic kidney (HEK293T) cells expressing luciferase-tagged ELG1; note: nearly all actives have a fitted effect of over 55% in size
Conditions: HEK293T ELG1-luciferase reporter, luminescence, 16 h, DNA damage induced by 5-fluorouridine; activity change, negative = inhibition: at 46.1 µM (top of the series)
In short: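 Quantitative HTS, concentration-response format. 2,000 cells/well co-treated with 5-fluorouridine and compound, 16 hr in 5% CO2 at 37 °C; ONE-Glo luminescence read after 30 min.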
% is set by controls: 0 for no effect and ±100 for the full control effect; potency is the fitted concentration of half-maximal effect.

SMILES	activity change, negative = inhibition	Potency
COc1ccccc1N1CCN(C(=O)C2CC=CCC2C(=O)O)CC1 (centres undefined)	inactive: 8.98%	
Cc1cccc(NC(=O)C(=O)NCc2ccccn2)c1		inconclusive: 16.4 µM [activator, partial curve]
c1ccc2c(c1)OCC(c1nn3c(Cn4nnc5ccccc54)nnc3s1)O2 (centres undefined)		inconclusive: 29.1 µM [inhibitor, single point]
CC(=O)c1ccc(N2CCN(C(=O)CCCn3c(=O)[nH]c4ccc(Br)cc4c3=O)CC2)cc1		active: 18.3 µM
O=C(Nc1ccccc1O)c1ccc(C(=O)c2ccccc2)o1	inactive: -0.904%	
O=C(Nc1cccc(C(F)(F)F)c1)c1ccc(-n2cncn2)nc1		inconclusive: 16.4 µM [inhibitor, single point]
COc1ccc(/C=C2/C(=O)N(c3ccccc3)N=C2C)cc1OC		inconclusive: 25.9 µM [activator, single point]
COc1ccccc1NC(=O)CSc1nnc(CCNC(=O)c2ccc(C)cc2)n1C		inconclusive: 16.4 µM [activator, single point]
Cc1nc2ccccc2n1CCCOc1ccccc1		inconclusive: 10.3 µM [activator, partial curve]
COc1ccc(/C=N/OC(=O)Nc2ccc(Cl)cc2)c(OC)c1	inactive: 3.91%	
COc1ccc(/C=C/C(=O)CCC(=O)O)cc1		inconclusive: 20.6 µM [activator, single point]
Cc1[nH]c2ccccc2c1/C=N/NC(=O)c1cc(-c2cccs2)[nH]n1		inconclusive: 20.6 µM [inhibitor, partial curve, poor fit]
COc1cc(OC)cc(N(C(=O)C2COc3ccccc3O2)C(C(=O)NC2CCCCC2)c2ccc(O)cc2)c1 (centres undefined)		inconclusive: 20.6 µM [inhibitor, single point]
COc1ccc(N2C(=O)C3CCCN3C2c2ccc(C)o2)cc1Cl (centres undefined)		inconclusive: 29.1 µM [activator, single point]
Cc1nnc(NC(=O)c2ccc3ccccc3n2)s1		inconclusive: 20.6 µM [activator, partial curve]
COc1ccc(C2C(=O)N(C3CCCCC3)CC(=O)N2Cc2ccc3c(c2)OCO3)cc1 (centres undefined)		inconclusive: 29.1 µM [inhibitor, single point]
O=C(Nc1nc(-c2ccccn2)cs1)C1CCCC1		inconclusive: 20.6 µM [inhibitor, single point]
CCOC(=O)CNC(=O)CSc1nnc(-c2ccco2)n1N		inconclusive: 29.1 µM [activator, partial curve, poor fit]
COc1cccc(C2C(C(N)=O)=C(C)Nc3nc(-c4ccccc4Cl)nn32)c1 (centres undefined)		inconclusive: 20.6 µM [activator, single point]

A section of the results above:
SMILES	activity change, negative = inhibition	Potency
O=C(Nc1ccccc1O)c1ccc(C(=O)c2ccccc2)o1	inactive: -0.904%	
O=C(Nc1cccc(C(F)(F)F)c1)c1ccc(-n2cncn2)nc1		inconclusive: 16.4 µM [inhibitor, single point]
